Data reported in article PMC12221368, “Long AKAP18 isoforms anchor ubiquitin specific proteinases and coordinate calcium reuptake at the sarcoplasmic reticulum” (The Journal of Biological Chemistry, 2025).
These are yes or no findings as the source states them, for the method shown. For some of these results: In cells and extracts the contact can be indirect. Some results given as binding are weak or reduced against the parent protein; the word gives no strength. For some of these results: Sequences can lack the tags named with a protein.

The chains behind the UniProt entries cited, without tags or fusion partners. Where a name states a change or a piece, a line headed by the entry shows the natural chain unless it says otherwise. A line that says so, or that is headed by a name, gives the form on record, which may keep a tag or linker. Residues count along the entry.
UniProt Q6JP77: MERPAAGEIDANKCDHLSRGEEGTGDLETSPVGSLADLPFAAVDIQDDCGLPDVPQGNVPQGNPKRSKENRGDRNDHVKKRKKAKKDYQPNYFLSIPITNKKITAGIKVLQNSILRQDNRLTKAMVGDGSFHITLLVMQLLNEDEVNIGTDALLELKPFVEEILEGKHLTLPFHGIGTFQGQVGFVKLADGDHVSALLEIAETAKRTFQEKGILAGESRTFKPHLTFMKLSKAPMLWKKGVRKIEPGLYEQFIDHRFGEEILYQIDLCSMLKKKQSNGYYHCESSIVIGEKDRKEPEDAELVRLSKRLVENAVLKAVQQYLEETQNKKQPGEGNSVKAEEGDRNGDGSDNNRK
central (CD) domain of AKAP18: residues 88-292 of Q6JP77
SERCA2 (endogenous, human cardiomyocytes) (P16615-2, form named): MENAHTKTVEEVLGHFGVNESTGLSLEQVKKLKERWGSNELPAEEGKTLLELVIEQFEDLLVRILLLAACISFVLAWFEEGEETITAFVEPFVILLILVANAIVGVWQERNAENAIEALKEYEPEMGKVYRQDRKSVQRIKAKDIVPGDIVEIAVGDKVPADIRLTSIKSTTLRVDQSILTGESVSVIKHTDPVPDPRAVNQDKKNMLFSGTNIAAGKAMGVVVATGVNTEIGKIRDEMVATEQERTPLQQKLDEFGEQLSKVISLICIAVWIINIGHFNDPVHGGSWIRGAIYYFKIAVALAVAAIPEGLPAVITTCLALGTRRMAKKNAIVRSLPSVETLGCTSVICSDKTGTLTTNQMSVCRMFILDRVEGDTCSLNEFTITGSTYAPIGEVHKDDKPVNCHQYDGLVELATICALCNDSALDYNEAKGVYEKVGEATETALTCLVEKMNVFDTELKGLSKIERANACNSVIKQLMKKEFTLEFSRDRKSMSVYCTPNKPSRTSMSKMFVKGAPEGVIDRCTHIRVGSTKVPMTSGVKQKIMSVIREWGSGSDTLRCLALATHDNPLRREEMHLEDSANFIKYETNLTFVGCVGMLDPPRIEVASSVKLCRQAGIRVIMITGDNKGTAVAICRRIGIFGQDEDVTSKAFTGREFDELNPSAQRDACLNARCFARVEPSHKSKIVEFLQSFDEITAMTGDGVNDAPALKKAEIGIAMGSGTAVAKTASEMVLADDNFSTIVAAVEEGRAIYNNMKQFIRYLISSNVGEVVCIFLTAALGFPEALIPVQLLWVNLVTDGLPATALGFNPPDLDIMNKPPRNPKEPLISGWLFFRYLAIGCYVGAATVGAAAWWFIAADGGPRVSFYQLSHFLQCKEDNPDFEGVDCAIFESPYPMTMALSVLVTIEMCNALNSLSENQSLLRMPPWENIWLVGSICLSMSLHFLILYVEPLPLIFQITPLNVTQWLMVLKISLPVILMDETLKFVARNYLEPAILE

How the values were obtained:
[1] = molecular target: T1, USP4 (endogenous, human cardiomyocytes) (human (endogenous in HCM)) (UniProt Q13107); test: co-IP; endogenous proteins, HCM (human cardiomyocyte) lysates; USP4 immune complexes against IgG control, immunoblot; in Figure 5A lysates with 32P ATP, without agonist, with cAMP stimulation, or with cAMP and PKI
T1 sequence: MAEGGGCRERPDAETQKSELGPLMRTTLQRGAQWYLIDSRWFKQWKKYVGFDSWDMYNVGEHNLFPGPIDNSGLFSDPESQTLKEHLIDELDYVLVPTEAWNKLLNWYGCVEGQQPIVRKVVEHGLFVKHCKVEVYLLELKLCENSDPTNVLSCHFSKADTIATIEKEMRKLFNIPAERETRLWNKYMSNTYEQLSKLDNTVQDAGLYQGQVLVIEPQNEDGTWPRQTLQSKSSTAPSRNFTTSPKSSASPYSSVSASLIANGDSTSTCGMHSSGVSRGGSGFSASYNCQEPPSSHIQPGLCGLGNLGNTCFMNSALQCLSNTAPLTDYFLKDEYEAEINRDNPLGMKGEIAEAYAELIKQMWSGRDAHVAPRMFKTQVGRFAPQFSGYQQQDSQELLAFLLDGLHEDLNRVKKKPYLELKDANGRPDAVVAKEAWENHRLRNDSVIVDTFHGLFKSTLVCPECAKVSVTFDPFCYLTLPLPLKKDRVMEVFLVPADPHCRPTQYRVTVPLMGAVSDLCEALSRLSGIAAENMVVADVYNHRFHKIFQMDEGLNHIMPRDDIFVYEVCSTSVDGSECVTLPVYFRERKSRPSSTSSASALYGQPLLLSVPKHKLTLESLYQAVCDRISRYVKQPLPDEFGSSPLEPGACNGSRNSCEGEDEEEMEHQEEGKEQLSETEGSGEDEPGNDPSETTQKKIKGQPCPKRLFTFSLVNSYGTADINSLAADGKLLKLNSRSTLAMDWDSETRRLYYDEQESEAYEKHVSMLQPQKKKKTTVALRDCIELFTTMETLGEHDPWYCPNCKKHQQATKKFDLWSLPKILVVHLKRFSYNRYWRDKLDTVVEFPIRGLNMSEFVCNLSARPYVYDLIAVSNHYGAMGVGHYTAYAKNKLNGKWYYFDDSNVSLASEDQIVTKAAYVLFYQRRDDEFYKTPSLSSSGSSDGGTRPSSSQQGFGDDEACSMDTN

GFP-AKAP18δ = GFP-AKAP18δ (UniProt Q6JP77 1-353); test: co-IP; HEK293 cells cotransfected with GFP-AKAP18 isoforms and V5-USP4; lysis buffer 25 mM Hepes pH 7.4, 150 mM NaCl, 1% Triton X-100; rabbit anti-GFP IgG and protein A agarose, 2 h at 4 °C; anti-V5 blot; IgG controls
[2] = molecular target: central (CD) domain of AKAP18 (UniProt Q6JP77); test: cross-linking; purified USP4 with the central domain of AKAP18 in 25 mM sodium phosphate buffer pH 7.4, PIR cross-linker (BDP; 0.1-1.0 mM); Coomassie gel; trypsin, LC-MS, xQuest; both purified
GST-AKAP18δ = GST-AKAP18δ (UniProt Q6JP77); test: pull-down; GST pull-down of purified FLAG-USP4 with purified GST-AKAP18δ; SDS-PAGE with Coomassie staining and anti-FLAG immunoblot; both purified

SERCA2 (endogenous, human cardiomyocytes) (from UniProt P16615-2 1-997)
binding [1]: binds

B1: V5-tagged USP4 (enzyme, UniProt Q13107 1-963, looked up)
chain: MAEGGGCRERPDAETQKSELGPLMRTTLQRGAQWYLIDSRWFKQWKKYVGFDSWDMYNVGEHNLFPGPIDNSGLFSDPESQTLKEHLIDELDYVLVPTEAWNKLLNWYGCVEGQQPIVRKVVEHGLFVKHCKVEVYLLELKLCENSDPTNVLSCHFSKADTIATIEKEMRKLFNIPAERETRLWNKYMSNTYEQLSKLDNTVQDAGLYQGQVLVIEPQNEDGTWPRQTLQSKSSTAPSRNFTTSPKSSASPYSSVSASLIANGDSTSTCGMHSSGVSRGGSGFSASYNCQEPPSSHIQPGLCGLGNLGNTCFMNSALQCLSNTAPLTDYFLKDEYEAEINRDNPLGMKGEIAEAYAELIKQMWSGRDAHVAPRMFKTQVGRFAPQFSGYQQQDSQELLAFLLDGLHEDLNRVKKKPYLELKDANGRPDAVVAKEAWENHRLRNDSVIVDTFHGLFKSTLVCPECAKVSVTFDPFCYLTLPLPLKKDRVMEVFLVPADPHCRPTQYRVTVPLMGAVSDLCEALSRLSGIAAENMVVADVYNHRFHKIFQMDEGLNHIMPRDDIFVYEVCSTSVDGSECVTLPVYFRERKSRPSSTSSASALYGQPLLLSVPKHKLTLESLYQAVCDRISRYVKQPLPDEFGSSPLEPGACNGSRNSCEGEDEEEMEHQEEGKEQLSETEGSGEDEPGNDPSETTQKKIKGQPCPKRLFTFSLVNSYGTADINSLAADGKLLKLNSRSTLAMDWDSETRRLYYDEQESEAYEKHVSMLQPQKKKKTTVALRDCIELFTTMETLGEHDPWYCPNCKKHQQATKKFDLWSLPKILVVHLKRFSYNRYWRDKLDTVVEFPIRGLNMSEFVCNLSARPYVYDLIAVSNHYGAMGVGHYTAYAKNKLNGKWYYFDDSNVSLASEDQIVTKAAYVLFYQRRDDEFYKTPSLSSSGSSDGGTRPSSSQQGFGDDEACSMDTN
binding (GFP-AKAP18δ): binds

B2: purified FLAG tagged-USP4 (enzyme, UniProt Q13107 1-963)
chain: MAEGGGCRERPDAETQKSELGPLMRTTLQRGAQWYLIDSRWFKQWKKYVGFDSWDMYNVGEHNLFPGPIDNSGLFSDPESQTLKEHLIDELDYVLVPTEAWNKLLNWYGCVEGQQPIVRKVVEHGLFVKHCKVEVYLLELKLCENSDPTNVLSCHFSKADTIATIEKEMRKLFNIPAERETRLWNKYMSNTYEQLSKLDNTVQDAGLYQGQVLVIEPQNEDGTWPRQTLQSKSSTAPSRNFTTSPKSSASPYSSVSASLIANGDSTSTCGMHSSGVSRGGSGFSASYNCQEPPSSHIQPGLCGLGNLGNTCFMNSALQCLSNTAPLTDYFLKDEYEAEINRDNPLGMKGEIAEAYAELIKQMWSGRDAHVAPRMFKTQVGRFAPQFSGYQQQDSQELLAFLLDGLHEDLNRVKKKPYLELKDANGRPDAVVAKEAWENHRLRNDSVIVDTFHGLFKSTLVCPECAKVSVTFDPFCYLTLPLPLKKDRVMEVFLVPADPHCRPTQYRVTVPLMGAVSDLCEALSRLSGIAAENMVVADVYNHRFHKIFQMDEGLNHIMPRDDIFVYEVCSTSVDGSECVTLPVYFRERKSRPSSTSSASALYGQPLLLSVPKHKLTLESLYQAVCDRISRYVKQPLPDEFGSSPLEPGACNGSRNSCEGEDEEEMEHQEEGKEQLSETEGSGEDEPGNDPSETTQKKIKGQPCPKRLFTFSLVNSYGTADINSLAADGKLLKLNSRSTLAMDWDSETRRLYYDEQESEAYEKHVSMLQPQKKKKTTVALRDCIELFTTMETLGEHDPWYCPNCKKHQQATKKFDLWSLPKILVVHLKRFSYNRYWRDKLDTVVEFPIRGLNMSEFVCNLSARPYVYDLIAVSNHYGAMGVGHYTAYAKNKLNGKWYYFDDSNVSLASEDQIVTKAAYVLFYQRRDDEFYKTPSLSSSGSSDGGTRPSSSQQGFGDDEACSMDTN
binding [2]: binds
binding (GST-AKAP18δ): binds
